Test results published in patent publication US20260159510A1, “HETEROCYCLIC COMPOUND, PREPARATION METHOD THEREFOR AND USE THEREOF” (GUANGZHOU DAGUANG PHARMACEUTICAL CO., LTD., priority 2022, published 2026).
At least one compound was matched to its structure with a doubt left.

Tested on: rat models with focal cerebral ischemia-reperfusion (tMCAO)
Test: Drug efficacy test in tMCAO model rats, overall result
Assay type: in vivo, SD rats
Settings: latent period of falling, behavioral scores, infarction area, cerebral blood flow
Method: Rat models with focal cerebral ischemia-reperfusion (tMCAO) were prepared by using a suture-occluded method, and therapeutic effects of the test drugs on the tMCAO model rats were investigated.
A specific modeling method for the rat models with focal cerebral ischemia-reperfusion (tMCAO) is as follows. At 12 h before surgery, the rats were fed at about 30 g/piece. After induced anesthesia with 3-4% isoflurane and maintained anesthesia with 1.5-2.5% isoflurane were performed, the rats were placed at supine positions on an operating table at a constant temperature of 37° C. The skin in middle lines of necks was cut, subcutaneous tissues and muscles were bluntly separated, and common carotid arteries on right sides, internal carotid arteries and external carotid arteries were separated. Two ligation threads were allowed to penetrate through the external carotid arteries to ligate distal ends, an artery clamp was placed at the common carotid arteries and the internal carotid arteries, respectively, small incisions were made at 45° diagonally on the external carotid arteries at about 4 mm away from bifurcations of the common carotid arteries, and suitable suture occlusions were inserted to gently ligate proximal ends. […]

Cc1cc(OC(=O)c2cccnc2)n(-c2nc(C)c(C)nc2C)n1 [Test drug 1, 3-methyl-1-(3,5,6-trimethylpyrazin-2-yl)-1H-pyrazol-5-nicotinate]
Overall therapeutic effect in tMCAO rats (in words; vs model control group and between test drug groups): better than the groups 2 and 5
